Source: PubChem BioAssay AID652243 (Drosophila RNAi Screening Center, 2013)

- Aim: 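Fly genes required for human androgen receptor driven transcription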 (primary screen)
- Cell system: Drosophila S2R+ cells
- Reagent: long dsRNA against Drosophila genes
- Time to read-out: 72 h (48 h, then 24 h hormone)
- Treatment: synthetic androgen R1881 at 10 nM for 24 h
- Measurement: 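Per-well raw luminescence of the androgen-driven firefly reporter and of the Renilla control, two replicates each, without normalisation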
- Reading the numbers: firefly reporter light: higher = more light from androgen-responsive reporter; Renilla control light: higher = more constitutive control signal (cell number, transfection)
- Hit rule: 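Hit when the log firefly-to-Renilla ratio dropped or increased by a fixed fold versus the mean of GFP or LacZ controls across duplicate plates; lowering cut given as 1.5 and as 3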
- Meaning of the calls: active = hit: reporter lowered or raised; inactive = no hit
The screen tested about 24,000 reagents; shown is a random part of those that have a named target and a result. In the full data, 246 (1%) got an active call. 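Plates not normalised; calls are printed but the firefly/Renilla ratio behind them is not deposited; fold cut for lowering reported inconsistently.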 Raw values vary from plate to plate and are shown uncorrected. Names joined by + are all predicted targets of the reagent. Not given: the amount of reagent.

target	dsRNA	firefly reporter light, replicate 1	firefly reporter light, replicate 2	Renilla control light, replicate 1	Renilla control light, replicate 2	outcome
mbc (GeneID 42817)	DRSC16995	1.92e5	2.02e5	2.45e6	2.56e6	inactive
CG14565 (GeneID 40423)	DRSC11726	3.51e5	2.94e5	3.41e6	3.27e6	inactive
CG14565 (GeneID 40423)	DRSC26063	5.05e5	3.69e5	6.91e5	6.59e5	inactive
Det (GeneID 42077)	DRSC14489	2.05e5	2.46e5	2.47e6	2.88e6	inactive
CG7694 (GeneID 42230)	DRSC16288	1.06e5	2.58e5	1.62e6	2.69e6	inactive
CG15431 (GeneID 33646)	DRSC00446	1.06e5	84198	7.01e5	5.96e5	inactive
CG15431 (GeneID 33646)	DRSC29532	2.28e5	2.98e5	7.03e5	7.03e5	inactive
Rab1 (GeneID 42524)	DRSC16808	3.36e5	4.68e5	3.15e6	3.56e6	inactive
Rab1 (GeneID 42524)	DRSC29851	8.25e5	6.33e5	1.18e6	1.37e6	inactive
lute (GeneID 42089)	DRSC14812	1.63e5	1.72e5	2.29e6	2.63e6	inactive
lute (GeneID 42089)	DRSC15769	1.03e5	81134	5.62e5	6.43e5	inactive
lute (GeneID 42089)	DRSC25911	4.81e5	6.38e5	9.10e5	7.58e5	inactive
lute (GeneID 42089)	DRSC27206	4.72e5	3.26e5	76128	27049	inactive
CG8343 (GeneID 35544)	DRSC04905	1.14e6	6.72e5	1.81e6	2.18e6	inactive
CG8343 (GeneID 35544)	DRSC27692	2.10e5	2.26e5	4.41e5	5.25e5	inactive
CG8765 (GeneID 40147)	DRSC23043	8.10e5	8.47e5	1.47e6	1.51e6	inactive
CG8765 (GeneID 40147)	DRSC26371	7.41e5	6.00e5	8.83e5	6.58e5	inactive
CG10581 (GeneID 40326)	DRSC11623	2.50e5	1.93e5	2.15e6	2.29e6	inactive
CG31462 (retired record) (GeneID 326143)	DRSC14359	38048	56338	1.43e6	1.53e6	inactive
Pcd (GeneID 43499)	DRSC16785	1.46e5	1.59e5	2.05e6	2.96e6	inactive
CG34135 + CG11768	DRSC38826	1.50e6	1.22e6	2.19e6	1.70e6	inactive
CheB38b (GeneID 2768933)	DRSC22874	2.54e5	8.23e5	4.08e5	1.11e6	inactive

Entries listed so far whose target name begins with L or l:
target	dsRNA	firefly reporter light, replicate 1	firefly reporter light, replicate 2	Renilla control light, replicate 1	Renilla control light, replicate 2	outcome
lute (GeneID 42089)	DRSC14812	1.63e5	1.72e5	2.29e6	2.63e6	inactive
lute (GeneID 42089)	DRSC15769	1.03e5	81134	5.62e5	6.43e5	inactive
lute (GeneID 42089)	DRSC25911	4.81e5	6.38e5	9.10e5	7.58e5	inactive
lute (GeneID 42089)	DRSC27206	4.72e5	3.26e5	76128	27049	inactive

The results go on:
target	dsRNA	firefly reporter light, replicate 1	firefly reporter light, replicate 2	Renilla control light, replicate 1	Renilla control light, replicate 2	outcome
lncRNA:cherub (GeneID 12797884)	DRSC36550	5.95e5	6.17e5	1.31e6	1.29e6	inactive
lncRNA:cherub (GeneID 12797884)	DRSC36551	5.05e5	6.40e5	1.55e6	1.64e6	inactive
lncRNA:cherub (GeneID 12797884)	DRSC36552	7.49e5	6.58e5	1.46e6	1.01e6	inactive
CG34001 (GeneID 3885640)	DRSC38847	1.21e6	1.21e6	2.22e6	1.98e6	inactive
CG44837 (GeneID 5740513)	DRSC10133	27297	24021	6.25e5	6.07e5	active
CG44837 (GeneID 5740513)	DRSC10558	1.54e5	1.54e5	2.24e6	1.74e6	inactive
CG44837 (GeneID 5740513)	DRSC25062	9.68e5	9.50e5	1.33e6	1.49e6	inactive
rad (retired record) (GeneID 32251)	DRSC19687	4.94e5	3.76e5	3.13e6	2.86e6	inactive
rad (retired record) (GeneID 32251)	DRSC22865	5.89e5	9.20e5	1.09e6	2.17e6	inactive
rad (retired record) (GeneID 32251)	DRSC23355	1.14e6	1.13e6	1.17e6	1.13e6	inactive
dunk (GeneID 4379900)	DRSC36514	8.16e5	6.18e5	1.19e6	1.58e6	inactive
dunk (GeneID 4379900)	DRSC36515	1.06e6	1.17e6	1.42e6	1.68e6	inactive
ringer (GeneID 39813)	DRSC10455	2.86e5	1.54e5	1.71e6	9.56e5	inactive
tbrd-2 (GeneID 37207)	DRSC07020	90922	75013	8.33e5	8.74e5	inactive
RpS6 (GeneID 31700)	DRSC18712	36911	24182	1.56e5	2.65e5	inactive
RpS6 (GeneID 31700)	DRSC25010	2.36e5	1.44e5	8.68e5	3.11e5	inactive
CG12206 (GeneID 31316)	DRSC24963	1.09e6	1.34e6	6.60e5	6.75e5	inactive
Mkk4 (GeneID 41020)	DRSC16739	1.58e5	1.71e5	2.82e6	2.54e6	inactive
Mkk4 (GeneID 41020)	DRSC29113	5.03e5	3.45e5	1.65e6	1.04e6	inactive
Mkk4 (GeneID 41020)	DRSC37035					inactive
CG6508 (GeneID 34493)	DRSC02963	1.74e5	1.97e5	1.40e6	1.39e6	inactive
Shaw (GeneID 33599)	DRSC00433	1.33e5	53392	1.27e6	1.09e6	inactive
Shaw (GeneID 33599)	DRSC00788	5.45e5	4.88e5	3.78e6	3.08e6	inactive
Shaw (GeneID 33599)	DRSC21368	8.51e5	8.05e5	1.92e6	1.64e6	inactive
Nrx-IV (GeneID 39387)	DRSC11238	1.10e6	6.57e5	1.94e6	1.63e6	inactive
Tsp42Eo (GeneID 35625)	DRSC06184	3.34e5	3.29e5	2.01e6	1.79e6	inactive
CG15127 (GeneID 50203)	DRSC05802	2.02e5	1.09e5	2.83e5	2.32e5	inactive
CG15127 (GeneID 50203)	DRSC06549	1.99e5	2.17e5	2.02e6	2.01e6	inactive
Ppm1 (GeneID 38071)	DRSC08260	61006	56091	9.88e5	9.52e5	inactive
Ppm1 (GeneID 38071)	DRSC27792	2.28e5	1.79e5	4.86e5	7.09e5	inactive
CG7139 (GeneID 40448)	DRSC11611	29917	33467	3.25e5	2.87e5	inactive
CG7139 (GeneID 40448)	DRSC24579	5.76e5	8.63e5	5.96e5	9.02e5	inactive
CG1965 (GeneID 40842)	DRSC12577	4.72e5	3.54e5	3.83e6	3.20e6	inactive
CG1965 (GeneID 40842)	DRSC21828	4.17e5	4.13e5	1.68e6	3.06e6	inactive
CG32700 (GeneID 31896)	DRSC17857	1.87e5	2.22e5	2.41e6	2.63e6	inactive
CG32700 (GeneID 31896)	DRSC17858	2.63e5	3.05e5	2.99e6	2.94e6	inactive
